Assay results reported in patent publication US20210170035A1, “METHOD OF TREATING CANCER BY TARGETING MYELOID-DERIVED SUPPRESSOR CELLS” (priority 2016, published 2021).
For at least one compound, name, drawing or mass did not settle the structure.

System: TAMs/MDSCs
Test: IL-10 ELISA assay after in vitro TAMs/MDSCs screening
Assay type: cell-based, mouse
Conditions: co-culture with drug; absorbance at 492 nm
Method: 10 million 4T1 cells in 300 μL PBS were injected into the peritoneal cavity. Peritoneal ascites were collected between day 7 and day 10 by peritoneal lavage. […] Cells were counted and ready for flow cytometry staining and in vitro screening.
Cells isolated from the peritoneal model were re-suspended in completed RPMI 1640 medium supplemented with 10 ng/mL mouse GM-CSF and seeded into 96 well plates. Different concentrations of screening drugs listed in Table 2 were dissolved in the same medium and were added to each well containing 0.5 millions of cells in 300 μL medium. Wells containing 0.5 million cells in 300 μL medium without addition of drugs were kept as untreated control. Three extra wells were charged with 300 μL medium without cells and drugs to be kept as background control. Cells were then incubated at 37° C. in a humidified 95% air 5% CO2 atmosphere for 24 hours to 48 hours. […] Cells were washed twice with 300 μL PBS, and were then ready for the arginase assay.
IL-10 production by TAMs/MDSCs after in vitro incubation with different compounds was determined by ELISA assay following the protocol provided with the Mouse IL-10 DuoSet ELISA by R&D Systems. […] The plates were ready for sample addition. […] The IL-10 concentration was proportional to the optical density determined by a microplate reader at 492 nm.

## COC[C@H]1OC(=O)c2coc3c2[C@@]1(C)C1=C(C3=O)[C@@H]2CCC(=O)[C@@]2(C)C[C@H]1OC(C)=O [wortmannin]
  IL-10 production by TAMs/MDSCs in vitro: efficiently decrease IL-10 production
